These are yes or no findings as the source states them, for the method shown. Binding seen in cells or lysates may run through a third protein. A result given as binding can be weak or reduced; the word gives no strength. Sequences can lack the tags named with a protein.

This experiment concerns the target T1, CsHydr1-myc (Colletotrichum siamense).
T1 sequence: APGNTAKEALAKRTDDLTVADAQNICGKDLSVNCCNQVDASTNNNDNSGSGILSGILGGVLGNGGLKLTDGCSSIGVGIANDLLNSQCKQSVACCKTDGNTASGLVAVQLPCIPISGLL
Briefly: co-IP; total proteins of C. siamense HN08 transformant coexpressing CsHydr1-myc and GFP-CsCap20; immunoprecipitation and western blot; control transformant with CsHydr1-myc only. (A western blot detects proteins with antibodies after separation by electrophoresis.)

With GFP-CsCap20 (Colletotrichum siamense), the binding entry was “binds”.

These data come from paper PMC9502314.
